We go through six molecules from publication PMC2672601.

The chains are these.
T1: VGluRδ2 (fusion between Venus and the glutamate receptor delta2, GluRδ2) (UniProt Q61625)
T1 sequence: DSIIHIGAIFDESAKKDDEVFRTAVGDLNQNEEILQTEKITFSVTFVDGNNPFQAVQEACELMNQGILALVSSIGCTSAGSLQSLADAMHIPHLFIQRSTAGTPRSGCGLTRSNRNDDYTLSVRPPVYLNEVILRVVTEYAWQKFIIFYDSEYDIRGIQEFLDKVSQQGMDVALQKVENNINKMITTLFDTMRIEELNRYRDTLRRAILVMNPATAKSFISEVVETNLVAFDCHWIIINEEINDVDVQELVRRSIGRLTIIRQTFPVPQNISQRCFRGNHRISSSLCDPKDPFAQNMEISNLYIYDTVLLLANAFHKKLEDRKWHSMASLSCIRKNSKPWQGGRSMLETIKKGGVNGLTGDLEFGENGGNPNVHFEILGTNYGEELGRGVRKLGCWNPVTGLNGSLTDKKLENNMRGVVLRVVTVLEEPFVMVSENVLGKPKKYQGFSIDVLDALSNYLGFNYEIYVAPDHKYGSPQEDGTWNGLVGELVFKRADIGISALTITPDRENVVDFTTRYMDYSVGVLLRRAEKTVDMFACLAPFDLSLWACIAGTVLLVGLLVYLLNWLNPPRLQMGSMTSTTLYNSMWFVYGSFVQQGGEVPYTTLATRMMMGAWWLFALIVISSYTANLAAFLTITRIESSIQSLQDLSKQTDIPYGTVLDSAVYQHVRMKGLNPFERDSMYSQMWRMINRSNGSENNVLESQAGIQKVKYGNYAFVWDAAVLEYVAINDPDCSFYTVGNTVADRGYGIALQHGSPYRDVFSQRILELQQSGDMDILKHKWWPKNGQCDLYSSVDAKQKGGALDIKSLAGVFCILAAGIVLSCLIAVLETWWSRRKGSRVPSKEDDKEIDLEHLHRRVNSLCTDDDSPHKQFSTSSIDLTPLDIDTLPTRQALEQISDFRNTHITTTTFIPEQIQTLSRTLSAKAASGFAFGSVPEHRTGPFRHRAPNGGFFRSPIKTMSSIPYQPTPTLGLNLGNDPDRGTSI

B1: Ncoa7 (protein, UniProt Q6DFV7 1-943)
chain: MDTKEEKKEQKERKQSYFARLKKKKQAKQNAEIVSAASSKSRSGKDDANSDILEQDKFNVTAEGDHSTDDKKKRKSNQLKEIRRTELKRYYSVDDNQNKTHDKKEKKMMVQKPQGTMEYTAGSQDTLNSVALKFNVTPNKLVELNKLFTHTIVPGQVLFVPDANISSSTIQLSSSTPGATVSPSSSDAEYDKLPDADLARKALKPIERVLSSTSEEDEPGVVKFLKMNCRYFTDGKGVVGGVMIVTPNNIMFDPHKSDPLVIENGCEEYGLICPMEEVVSIALYSDISHMKIKDALPSDLPRDLCPLYRPGEWEDLASEKDINPFSKFKSINKEKRQQNGERTLALDAKSVRSPEESTERTCTRIEPPDNSELWKLKNLQSSRGTTSESPSVTQLSMRAALEPTAKENCLLKGDEDFVDLEELSSQPESGINKGDATKECLSYDQKKDGPHTVMSAKKGHVQSAQEVMGPESDTELKGALDLETAEKQDEAPEVDKHSGSPENLGESTLNIHEDLDKIKLIEFYLNKNKEGSQLLENVQKSELSDRKSIEPGGIDITLSSSLPQAGDSPPEDNKEPGTLWVKGGETLPLKLDPSAEETVINNKEVLDSLGSSLDKMCHSAQMDNKSEIQLWLLKRIQVPIEDILPSKEEKSKTPPMFLCIKVGKPMRKSFASHTATMVQQYSKRRKQPEYWFAVPRERVDHLYTFFVQWSPDVYGKDAKEQGFVVVEKEELNMIDNFFSEPTTKSWEIITVEEAKRRKSTCSYYEEEEEEEEGLPILQPHSALLENMHIEQLARRLPARVQGYPWRLAYSTLEHGTSLKTLYRKSASLDSPVLLVIKDMDNQIFGAYATHPFKFSDHYYGTGETFLYTFSPNFKVFKWSGENSYFINGDISSLELGGGGGRFGLWLDADLYHGRSNSCSTFNNDILSKKEDFIVQDLEVWTFE
B2: internexin (protein, UniProt P46660 1-501)
chain: MSFGSEHYLCSASSYRKVFGDSSRLSARLSGPGGSGSFRSQSLSRSNVASTAACSSASSLGLGLAYRRLPASDGLDLSQAAARTNEYKIIRTNEKEQLQGLNDRFAVFIEKVHQLETQNRALEAELAALRQRHAEPSRVGELFQRELRELRAQLEEASSARAQALLERDGLAEEVQRLRARCEEESRGREGAERALKAQQRDVDGATLARLDLEKKVESLLDELAFVRQVHDEEVAELLATLQASSQAAAEVDVAVAKPDLTSALREIRAQYESLAAKNLQSAEEWYKSKFANLNEQAARSTEAIRASREEIHEYRRQLQARTIEIEGLRGANESLERQILELEERHSAEVAGYQDSIGQLESDLRNTKSEMARHLREYQDLLNVKMALDIEIAAYRKLLEGEETRFSTGGLSISGLNPLPNPSYLLPPRILSSTASKVSSAGLSLKKEEEEEEEEASKEVSKKTSKVGEGFEETLGEAVISTKKTGKSATEESTSSSQKM
B3: gephyrin (protein, UniProt Q8BUV3 1-769)
chain: MATEGMILTNHDHQIRVGVLTVSDSCFRNLAEDRSGINLKDLVQDPSLLGGTISAYKIVPDEIEEIKETLIDWCDEKELNLILTTGGTGFAPRDVTPEATKEVIEREAPGMALAMLMGSLNVTPLGMLSRPVCGIRGKTLIINLPGSKKGSQECFQFILPALPHAIDLLRDAIVKVKEVHDELEDLPSPPPPLSPPPTTSPHKQTEDKGVQCEEEEEEKKDSGVASTEDSSSSHITAAALAAKIPDSIISRGVQVLPRDTASLSTTPSESPRAQATSRLSTASCPTPKQIRRPDESKGVASRVGSLKARLPSCSSTYSVSEVQSRCSSKENILRASHSAVDITKVARRHRMSPFPLTSMDKAFITVLEMTPVLGTEIINYRDGMGRVLAQDVYAKDNLPPFPASVKDGYAVRAADGPGDRFIIGESQAGEQPTQTVMPGQVMRVTTGAPIPCGADAVVQVEDTELIRESDDGTEELEVRILVQARPGQDIRPIGHDIKRGECVLAKGTHMGPSEIGLLATVGVTEVEVNKFPVVAVMSTGNELLNPEDDLLPGKIRDSNRSTLLATIQEHGYPTINLGIVGDNPDDLLNALNEGISRADVIITSGGVSMGEKDYLKQVLDIDLHAQIHFGRVFMKPGLPTTFATLDIDGVRKIIFALPGNPVSAVVTCNLFVVPALRKMQGILDPRPTIIKARLSCDVKLDPRPEYHRCILTWHHQEPLPWAQSTGNQMSSRLMSMRSANGLLMLPPKTEQYVELHKGEVVDVMVIGRL
B4: delta-catenin-2 (protein, UniProt O35927 1-1247)
chain: MFARKQSGAAPFGAMPVPDQPPSASEKNSSLSPGLNTSNGDGSETETTSAILASVKEQELQFERLTRELEAERQIVASQLERCKLGSETGSMSSISSAGEQFHWQTQDGQKDIEDELTTGLELVDSCIRSLQESGILDPQDYSTSERPSLLSQSALQLNSKPEGSFQYPASYHSNQTLALGDTAPSQLPARSTQARAAGQSFSQGTTGRAGHLAGSEPAPPPPPPREPFAPSLGSAFHLPDAPPAAAALYYSSSTLPAPPRGGSPLTTTQGGSPTKLQRGGSAPEGAAYAAPRGSSPKQSPSRLAKSYSTSSPINIVVSSAGLSPIRVTSPPTVQSTISSSPIHQLSSTIGTYATLSPTKRLVHASEQYSKHSQELYATATLQRPGSLAAGSRASYSSQHGHLAPELRALQSPEHHIDPIYEDRVYQKPPMRSLSQSQGDPLPPAHTGTFRTSTAPSSPGVDSVPLQRTGSQHGPQNAAAATFQRASYAAGPASNYADPYRQLQYCASVDSPYSKSGPALPPEGTLARSPSIDSIQKDPREFGWRDPELPEVIQMLQHQFPSVQSNAAAYLQHLCFGDNKIKAEIRRQGGIQLLVDLLDHRMTEVHRSACGALRNLVYGKANDDNKIALKNCGGIPALVRLLRKTTDLEIRELVTGVLWNLSSCDALKMPIIQDALAVLTNAVIIPHSGWENSPLQDDRKIQLHSSQVLRNATGCLRNVSSAGEEARRRMRECDGLTDALLYVIQSALGSSEIDSKTVENCVCILRNLSYRLAAETSQGQHMGTDELDGLLCGETNGKDTESSGCWGKKKKKKKSQDQWDGVGPLPDCAEPPKGIQMLWHPSIVKPYLTLLSECSNPDTLEGAAGALQNLAAGSWKGWAEDVAGMAYALRSLPEGAPCLPQWSVYIRAAVRKEKGLPILVELLRIDNDRVVCAVATALRNMALDVRNKELIGKYAMRDLVHRLPGGNNSNNSGSKAMSDDTVTAVCCTLHEVITKNMENAKALRDAGGIEKLVGISKSKGDKHSPKVVKAASQVLNSMWQYRDLRSLYKKDGWSQYHFVASSSTIERDRQRPYSSSRTPSISPVRVSPNNRSASAPASPREMISLKERKTDYESAGNNATYHGTKGEHTSRKDTMTAQNTGVSTLYRNSYGAPAEDIKQNQVSTQPVPQEPSRKDYETYQPFPNSTRNYDESFFEDQVHHRPPASEYTMHLGLKSTGNYVDFYSAARPYSELNYETSHYPASPDSWV
B5: delphilin (protein, UniProt Q0QWG9 1-1203)
chain: MPATNQGWPEDFGFQLGGSGPCFVIEVAEGSSAHAGGLRPGDQILEVEGLAVGGLSRERIVRLARRCPRVPPSLGVLPGPEGGPTALTAAWLTRRFGRSLPLSRELLRLAGGPRPDAVHRERRRKAQEFSCQVDDILGDRLTAKEQVFTALKQFAAEQRVDELVWTLTLVLPSEAQGPVLDNLRIFIPKKHRARFDEVVSQGLLGKLCRARRAQGAQRLRRSRSEERPERLLVSTRASAAPRRPDEPPPRKATSLLGGRTGPGGPRRTVRVYKGNKSFGFTLRGHGPVWIESVLPGSPAENASLKSGDRILFLNGLDMRNCSHDKVVSMLQGSGAMPTLVVEEGPVPFASDSDSLDSPTRASALTSLQWVADILPSSIRVQGRTFSQQLDHLLTPPERYGVCRALERFFQHRNIDTLIVDVYPVLDTPAKQVLWQFLYQLLTYEEQELCQEKIACFLGYTAMTEPESSLDLEPESTPEPTPEPQPRSSLRASSMCRRSLRSQGLETSLSCGPGDCPEMPLPLIPGERQAGDGTSLPETPNPKMMSAVYAELESRLNSSFKGKIGTMSKSRASPPVPSLVGTSGPRTLSGVSWPSDRLLPSPCYDPLCSGGLASPSSSESHPYASLDSSRAPSPQPGLGSIHADSPPSPDPIRPPSRRKLFAFSRPVRSRDTDRFLDALSEQLGPRLSIVDDFLTPENDYEEMSFHDDQGSFVTNERSSASECVSSSEEGSSLTYSSISDHIPPPPLSPPPPPPLPFHDPKPSSRTSDGPRGPPQSLTKPLTQINHPVPPPPPPPLPPPVPCAPPMLSRGVGHRRSETSHMSVKRLRWEQVENSEGTIWGQLGEDSDYDKLSDMVKYLDLELHFGTQKPPKPVPGPEPFRKKEVVEILSHKKAYNTSILLAHLKLTPGELRQVLMSMEPRRLEPAHLAQLLLFAPDADEEQRYQAFREAPGRLSEPDQFVLQMLSVPEYKTRLRSLHFQATLQEKTEEIRGSLECLRQASLELKNSRKLAKILEFVLAMGNYLNDGQPKTNKTTGFKINFLTELNSTKTVDGKSTFLHILAKSLSQHFPELLGFAQDLPTVPLAAKVNQRALTGDLADLHDTVSEIQVACQSMAPSSEDRFAVVMASFLETAQPALRALDGLQREAMEELGKALAFFGEDSKATTSEAFFGIFSEFMSKFERALSDLQAGDGPRSSGMVSPLAW
B6: Homer-3 (protein, UniProt Q99JP6 1-356)
chain: MSTAREQPIFSTRAHVFQIDPTTKRNWIPAGKHALTVSYFYDATRNVYRIISIGGAKAIINSTVTPNMTFTKTSQKFGQWADSRANTVYGLGFASEQQLTQFAEKFQEVKEAARLAREKSQDGGEFTSTGLALASHQVPPSPLVSTNGPGEEKLFRSQSADTPGPTERERLKKMLSEGSVGEVQWEAEFFALQDSNQRLAGALREANAAATQWRQQLEVQRAEAELLRQRVAELEAQVAVEPVRAGEKEATSQSVEQLEARVQTKDQTLKNQSTGTREAPDTAEREETQQQVQDLETRNAELEQQLRSMECNLEEARAERERARAEVGRAAQLLDVRLFELSELREGLARLAEAAP

These are yes or no findings as the source states them, for the method shown. In cells and extracts the contact can be indirect. These calls come from enrichment with a bait or labelling near it, and not all partners need be listed. A no says only that the protein was not detected with the bait. Where a sequence is shown, tags or fusion partners need not be part of it.

The test concerns the target T1, VGluRδ2 (fusion between Venus and the glutamate receptor delta2, GluRδ2). Nature of the test: affinity purification with mass spectrometry; same anti-GFP affinity purification of pooled synaptic fractions (samples pooled from 30 and from 50 Pcp2/VGluRδ2 cerebella); SDS-PAGE, in-gel trypsin digestion, MALDI QqTOF MS and MALDI-IT MS/MS; control isolates from Pcp2/eGFP mice.
Regarding B1, the binding result is listed as “binds”.

On to B2, for which the binding result is reported as “binds”.

Take B3: the binding entry is listed as “no binding”.

Regarding B4, the binding entry was “binds”.

For B5, the binding entry is “binds”.

Consider B6, for which the binding entry is recorded as “binds”.
